The source of these data is PMC9876576.

Results are given in words; binding and its absence hold for the method and conditions named. Some results given as binding are weak or reduced against the parent protein; the word gives no strength.

Test [1] concerns the target T1, DnaJ homolog subfamily C member 5 (DNAJC5), wild type (human), Q9H3Z4.
T1 chain: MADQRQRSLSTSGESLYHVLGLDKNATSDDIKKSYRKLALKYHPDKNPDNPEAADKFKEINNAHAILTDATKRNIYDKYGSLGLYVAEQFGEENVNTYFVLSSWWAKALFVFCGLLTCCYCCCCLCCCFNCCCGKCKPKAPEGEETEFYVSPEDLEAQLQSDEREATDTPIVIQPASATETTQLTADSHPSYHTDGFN
Description: SEC; HEK293T cells transfected with DNAJC5 lysed, clarified and subjected to gel filtration; fractions by SDS-PAGE and DNAJC5 immunoblot. The conditions noted are these: remark: other sources report otherwise.

Test [2] has as its target T1, DnaJ homolog subfamily C member 5 …. Description: SDS-resistant oligomers on SDS-PAGE and immunoblot; conditioned medium of transfected HEK293T cells (supernatants of 1k, 10k, 100k x g for the wild type); anti-DNAJC5 or anti-FLAG immunoblot. The conditions noted are these: remark: other sources report otherwise. (In general: A western blot detects proteins with antibodies after separation by electrophoresis.)

Test [3] shares this target. Description: SDS-resistant oligomers on SDS-PAGE and immunoblot; lysate of transfected HEK293T cells; anti-DNAJC5 or anti-FLAG immunoblot; loading samples with DTT up to 40 mM for the wild type. As to conditions: remark: other sources report otherwise.
Test [4] deals with T2, human DNAJC5 expressed in mouse mDA neurons (human), Q9H3Z4.
T2 chain: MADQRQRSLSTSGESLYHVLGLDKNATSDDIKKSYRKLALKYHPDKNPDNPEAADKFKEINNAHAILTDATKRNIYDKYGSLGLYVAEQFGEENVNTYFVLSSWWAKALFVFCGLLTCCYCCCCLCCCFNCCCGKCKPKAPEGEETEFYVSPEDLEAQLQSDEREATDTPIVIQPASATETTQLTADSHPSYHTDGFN
Description: SDS-resistant oligomers on SDS-PAGE and immunoblot; lysate of mouse mDA neurons (WT or expressing hDNAJC5) treated with DMSO or 100 nM BaFA1; immunoblot. As to conditions: remark: other sources report otherwise.

Test [5] has as its target DNAJC5 ΔC10 (residues 189–198 deleted) (human) (UniProt Q9H3Z4). Description: SDS-resistant oligomers on SDS-PAGE and immunoblot; lysate of transfected HEK293T cells; anti-DNAJC5 or anti-FLAG immunoblot; loading samples with DTT up to 40 mM for the wild type.
Test [6] has the same target. The test can be described thus: SDS-resistant oligomers on SDS-PAGE and immunoblot; conditioned medium of transfected HEK293T cells (supernatants of 1k, 10k, 100k x g for the wild type); anti-DNAJC5 or anti-FLAG immunoblot.
For test [7], the target named is DNAJC5 ΔC40 (residues 151–198 deleted) (human) (UniProt Q9H3Z4). The test can be described thus: SDS-resistant oligomers on SDS-PAGE and immunoblot; lysate of transfected HEK293T cells; anti-DNAJC5 or anti-FLAG immunoblot; loading samples with DTT up to 40 mM for the wild type.
For test [8] the target is unchanged. Description: SDS-resistant oligomers on SDS-PAGE and immunoblot; conditioned medium of transfected HEK293T cells (supernatants of 1k, 10k, 100k x g for the wild type); anti-DNAJC5 or anti-FLAG immunoblot.
Test [9] deals with DNAJC5 (ΔJ), J domain deleted (Δ14–82) (human) (UniProt Q9H3Z4). Description: SDS-resistant oligomers on SDS-PAGE and immunoblot; lysate of transfected HEK293T cells; anti-DNAJC5 or anti-FLAG immunoblot; loading samples with DTT up to 40 mM for the wild type.
Test [10] deals with DNAJC5 ΔC20 (residues 179–198 deleted) (human) (UniProt Q9H3Z4). The test is described as above.
For test [11] the target is unchanged. The test can be described thus: SDS-resistant oligomers on SDS-PAGE and immunoblot; conditioned medium of transfected HEK293T cells (supernatants of 1k, 10k, 100k x g for the wild type); anti-DNAJC5 or anti-FLAG immunoblot.
For test [12], the target named is DNAJC5 ΔC30 (residues 169–198 deleted) (human) (UniProt Q9H3Z4). Description: SDS-resistant oligomers on SDS-PAGE and immunoblot; lysate of transfected HEK293T cells; anti-DNAJC5 or anti-FLAG immunoblot; loading samples with DTT up to 40 mM for the wild type.
The target is the same in test [13]. Description: SDS-resistant oligomers on SDS-PAGE and immunoblot; conditioned medium of transfected HEK293T cells (supernatants of 1k, 10k, 100k x g for the wild type); anti-DNAJC5 or anti-FLAG immunoblot.

B1: DnaJ homolog subfamily C member 5 (DNAJC5), wild type, Q9H3Z4-1 1-198 (protein)
chain: MADQRQRSLSTSGESLYHVLGLDKNATSDDIKKSYRKLALKYHPDKNPDNPEAADKFKEINNAHAILTDATKRNIYDKYGSLGLYVAEQFGEENVNTYFVLSSWWAKALFVFCGLLTCCYCCCCLCCCFNCCCGKCKPKAPEGEETEFYVSPEDLEAQLQSDEREATDTPIVIQPASATETTQLTADSHPSYHTDGFN
modifications: here or on the partner: palmitoylated (P-DNAJC5) and non-palmitoylated (NP-DNAJC5) forms both present; palmitoylated (P-DNAJC5) and non-palmitoylated (NP-DNAJC5) forms both present
For B1, the binding result in [1], in [2] and in [3] was “binds” each time.

B2: human DNAJC5 expressed in mouse mDA neurons, Q9H3Z4-1 1-198 (protein)
chain: MADQRQRSLSTSGESLYHVLGLDKNATSDDIKKSYRKLALKYHPDKNPDNPEAADKFKEINNAHAILTDATKRNIYDKYGSLGLYVAEQFGEENVNTYFVLSSWWAKALFVFCGLLTCCYCCCCLCCCFNCCCGKCKPKAPEGEETEFYVSPEDLEAQLQSDEREATDTPIVIQPASATETTQLTADSHPSYHTDGFN
With B2, the binding result in [4] was “binds”.

B3: DNAJC5 ΔC10 (residues 189–198 deleted) (domain or fragment, UniProt Q9H3Z4-1 1-188)
chain: MADQRQRSLSTSGESLYHVLGLDKNATSDDIKKSYRKLALKYHPDKNPDNPEAADKFKEINNAHAILTDATKRNIYDKYGSLGLYVAEQFGEENVNTYFVLSSWWAKALFVFCGLLTCCYCCCCLCCCFNCCCGKCKPKAPEGEETEFYVSPEDLEAQLQSDEREATDTPIVIQPASATETTQLTADS
As to B3, the binding entry in [5] and in test [6] was “binds” throughout.

B4: DNAJC5 ΔC40 (residues 151–198 deleted) (domain or fragment, UniProt Q9H3Z4-1 1-150)
chain: MADQRQRSLSTSGESLYHVLGLDKNATSDDIKKSYRKLALKYHPDKNPDNPEAADKFKEINNAHAILTDATKRNIYDKYGSLGLYVAEQFGEENVNTYFVLSSWWAKALFVFCGLLTCCYCCCCLCCCFNCCCGKCKPKAPEGEETEFYV
On to B4, for which the binding entry in test [7] and in test [8] was “binds” throughout.

B5: DNAJC5 (ΔJ), J domain deleted (Δ14–82) (protein, UniProt Q9H3Z4-1)
chain: MADQRQRSLSTSGGLYVAEQFGEENVNTYFVLSSWWAKALFVFCGLLTCCYCCCCLCCCFNCCCGKCKPKAPEGEETEFYVSPEDLEAQLQSDEREATDTPIVIQPASATETTQLTADSHPSYHTDGFN
As to B5, the binding result in test [9] was “binds”.

B6: DNAJC5 ΔC20 (residues 179–198 deleted) (domain or fragment, UniProt Q9H3Z4-1 1-178)
chain: MADQRQRSLSTSGESLYHVLGLDKNATSDDIKKSYRKLALKYHPDKNPDNPEAADKFKEINNAHAILTDATKRNIYDKYGSLGLYVAEQFGEENVNTYFVLSSWWAKALFVFCGLLTCCYCCCCLCCCFNCCCGKCKPKAPEGEETEFYVSPEDLEAQLQSDEREATDTPIVIQPASA
Regarding B6, the binding result in test [10] and in [11] was “binds” throughout.

B7: DNAJC5 ΔC30 (residues 169–198 deleted) (domain or fragment, UniProt Q9H3Z4-1 1-168)
chain: MADQRQRSLSTSGESLYHVLGLDKNATSDDIKKSYRKLALKYHPDKNPDNPEAADKFKEINNAHAILTDATKRNIYDKYGSLGLYVAEQFGEENVNTYFVLSSWWAKALFVFCGLLTCCYCCCCLCCCFNCCCGKCKPKAPEGEETEFYVSPEDLEAQLQSDEREATD
On to B7, for which the binding result in [12] and in [13] was “binds” throughout.
